{"source": "PubChem BioAssay AID2417", "about": "(National Center for Advancing Translational Sciences (NCATS), 2010)", "note": "In all, about 140,000 compounds went through this assay and about 4,300 (3.1%) were called active. The inconclusive results got no clear call from the source; some entries with a clear call stand among them for comparison.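 The calls were made as follows: active = readout at or below -70, meaning at least 70% loss of cells showing the perinucleolar compartment, a nuclear body marking cancer cells; inconclusive = readout between -30 and a set limit; inactive = the rest.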", "data": [{"test": "High Content Assay for Compounds that inhibit the Assembly of the Perinucleolar Compartment;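 also: plate controls were DMSO wells for no effect and camptothecin positive control wells for full effect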", "conditions": "PC3M PTB-GFP, PNC prevalence imaging, 16 h; at 10 µM; active compounds read low", "in_short": "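Read-out is percentage of cells bearing a perinucleolar compartment, from automated 20x imaging of fixed, Hoechst-stained PC3M PTB-GFP cells. Cells were seeded 4 h, then exposed 16 h to compound (23 nl of library stock) in duplicate plates.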", "values": [{"molecule": "O=C(Nc1ccc(Cl)cc1Cl)c1cccc(N2C(=O)C=CC2=O)c1", "activity change (PNC), negative = inhibition": "inactive: -7.89%"}, {"molecule": "Cn1ccnc1Sc1nc2c(c(=O)n(C)c(=O)n2C)n1C", "activity change (PNC), negative = inhibition": "inconclusive: -72.3%"}, {"molecule": "CCC(C)c1ccc(S(=O)(=O)N2CC(=O)Nc3ccccc32)cc1", "note": "(centres undefined)", "activity change (PNC), negative = inhibition": "inconclusive: -37.7%"}, {"molecule": "CCn1c(C)nc2cc(C(=O)N/N=C/c3ccc(O)cc3)ccc21", "activity change (PNC), negative = inhibition": "inconclusive: -45.1%"}, {"molecule": "CC(=O)Cc1nsc(Nc2ccccc2)n1", "activity change (PNC), negative = inhibition": "inconclusive: -33.3%"}, {"molecule": "CCOC(=O)c1c(NC(=O)CC2SC(N)=NC2=O)sc2c1CCC(C)C2", "note": "(centres undefined)", "activity change (PNC), negative = inhibition": "inactive: 44.8%"}, {"molecule": "Cc1ccccc1N1C(=O)CC(Sc2nnc(-c3ccccc3)o2)C1=O", "note": "(centres undefined)", "activity change (PNC), negative = inhibition": "inactive: -23.6%"}, {"molecule": "CC(Sc1nnc(NC(=O)c2cc3ccccc3oc2=O)s1)c1ccccc1", "note": "(centres undefined)", "activity change (PNC), negative = inhibition": "inconclusive: -44%"}, {"molecule": "Clc1ccc(-c2nnc3n2CCCC3)cc1Cl", "activity change (PNC), negative = inhibition": "inactive: 96.7%"}, {"molecule": "O=C(Nc1ccc(S(=O)(=O)N2CCCCCC2)cc1)C1CCCO1", "note": "(centres undefined)", "activity change (PNC), negative = inhibition": "inconclusive: -61.3%"}, {"molecule": "CC(C)n1cc(/C=C2/SC(=O)N(CC(=O)N3CCCC3)C2=O)c2ccccc21", "activity change (PNC), negative = inhibition": "inconclusive: -47%"}, {"molecule": "Cc1ccc(/C=c2/sc3nnc(-c4ccccc4Cl)n3c2=O)o1", "activity change (PNC), negative = inhibition": "inconclusive: -61.3%"}, {"molecule": "CN(C)c1ccc(C(=S)N2CCCCCC2)cc1", "activity change (PNC), negative = inhibition": "inconclusive: -53.9%"}, {"molecule": "COc1ccc(O)c(C(=O)CC(=O)c2ccc(F)cc2)c1", "activity change (PNC), negative = inhibition": "inactive: -2.16%"}, {"molecule": "Cn1c(=O)n(C)c2cc(/C=N/NC(=S)NCc3ccccc3)ccc21", "activity change (PNC), negative = inhibition": "inconclusive: -55.7%"}, {"molecule": "O=C(c1ccco1)c1nc2c(n1O)CCCCC2", "activity change (PNC), negative = inhibition": "inconclusive: -31.4%"}, {"molecule": "O=C(NCCCN1CCOCC1)c1cc2ccccc2o1", "activity change (PNC), negative = inhibition": "inactive: 29.1%"}, {"molecule": "CCOC(=O)c1nnn(-c2nonc2N)c1-c1cccc2ccccc12", "activity change (PNC), negative = inhibition": "inconclusive: -48.2%"}, {"molecule": "CN(CC(=O)Nc1ccc(N2CCOCC2)cc1)CC(=O)Nc1ccccc1[N+](=O)[O-]", "activity change (PNC), negative = inhibition": "active: -100%"}, {"molecule": "O=S(=O)(Nc1cccc(C(F)(F)F)c1)c1cnc[nH]1", "activity change (PNC), negative = inhibition": "inconclusive: -35.4%"}, {"molecule": "S=C(Nc1ccc(Oc2ccccc2)cc1)NC1CCCCC1", "activity change (PNC), negative = inhibition": "inconclusive: -46.4%"}, {"molecule": "COc1ccc(C)cc1S(=O)(=O)N(CC(=O)Nc1cc([N+](=O)[O-])ccc1C)c1ccc(C)c(C)c1", "activity change (PNC), negative = inhibition": "inactive: -18.5%"}, {"molecule": "Cn1c(-c2ccc(C(C)(C)C)cc2)n[nH]c1=S", "activity change (PNC), negative = inhibition": "inactive: -12.7%"}, {"molecule": "O=C1CNC(=O)/C1=C/c1ccccc1", "activity change (PNC), negative = inhibition": "inconclusive: -35.4%"}, {"molecule": "Nc1c(C(=O)NCC2CCCO2)sc2nc3c(c(-c4ccco4)c12)CC/C3=C\\c1ccco1", "note": "(centres undefined)", "activity change (PNC), negative = inhibition": "inconclusive: -57%"}, {"molecule": "Cc1cc(-c2ccc(Cl)s2)n[nH]1", "activity change (PNC), negative = inhibition": "inconclusive: -38.6%"}, {"molecule": "COc1cc(/C=C/C(=O)OCC(=O)NC2CCS(=O)(=O)C2)ccc1O", "note": "(centres undefined)", "activity change (PNC), negative = inhibition": "inactive: 5.49%"}, {"molecule": "Cc1csc(SCC(=O)Nc2c(C)n(C)n(-c3ccccc3)c2=O)n1", "activity change (PNC), negative = inhibition": "inconclusive: -34.4%"}, {"molecule": "CCOC(=O)c1[nH]c(C)c(C(=O)NC(C)CC)c1C", "note": "(centres undefined)", "activity change (PNC), negative = inhibition": "inconclusive: -49.7%"}, {"molecule": "CCNC(=S)N/N=C/c1ccc(OCc2ccc(C(=O)OC)cc2)cc1", "activity change (PNC), negative = inhibition": "inactive: -7.43%"}, {"molecule": "CCOC(=O)/C(=C/c1c(C)n(C)c2ccc([N+](=O)[O-])cc12)C(C)=O", "activity change (PNC), negative = inhibition": "inconclusive: -45.6%"}, {"molecule": "COc1ccc(NC(=O)CCC(=O)N(Cc2ccc(OC)c(OC)c2)c2nccs2)cc1", "activity change (PNC), negative = inhibition": "inconclusive: -30.1%"}, {"molecule": "O=C(c1nnc(Cc2ccc(Cl)cc2)o1)N1CCc2ccccc2C1", "activity change (PNC), negative = inhibition": "inconclusive: -50.1%"}, {"molecule": "CCOC(=O)C[n+]1c(C)ccc2c1CCC2", "activity change (PNC), negative = inhibition": "inconclusive: -35.2%"}, {"molecule": "O=C(NCCc1ccccc1)C(=O)c1c(-c2ccccc2)cc2ccccn12", "activity change (PNC), negative = inhibition": "inconclusive: -30.2%"}, {"molecule": "CCCC(c1nnnn1CS(=O)(=O)c1ccc(C)cc1)N1CCN(c2ccccc2)CC1", "note": "(centres undefined)", "activity change (PNC), negative = inhibition": "inconclusive: -44%"}, {"molecule": "CCOC(=O)c1[nH]c(C)c(C(=O)NC)c1C", "activity change (PNC), negative = inhibition": "inconclusive: -31.6%"}, {"molecule": "CC(C)CC(=O)Nc1ccccc1N1CCOCC1", "activity change (PNC), negative = inhibition": "inconclusive: -47.5%"}, {"molecule": "CCCCc1ccc(NC(=O)C2CCCO2)cc1", "note": "(centres undefined)", "activity change (PNC), negative = inhibition": "inactive: 18.8%"}, {"molecule": "C/C(=N\\NC(=O)c1csc(C)c1C)c1ccc(C)s1", "activity change (PNC), negative = inhibition": "inactive: 23.2%"}, {"molecule": "O=C(c1ccc2c(=O)n(CC3CCCO3)c(=S)[nH]c2c1)N1CCN(c2ccccc2)CC1", "note": "(centres undefined)", "activity change (PNC), negative = inhibition": "inactive: -27.4%"}, {"molecule": "CCOCC(=O)Nc1ccc(S(=O)(=O)Nc2ncccn2)cc1", "activity change (PNC), negative = inhibition": "inconclusive: -67.1%"}, {"molecule": "COc1ccc(C2C3=C(CC(C)(C)CC3=O)Nc3c2c(=O)[nH]c2nc(C)nn32)cc1", "note": "(centres undefined)", "activity change (PNC), negative = inhibition": "inconclusive: -33.3%"}, {"molecule": "CCOc1ccccc1N1Cc2ccccc2C1", "activity change (PNC), negative = inhibition": "inconclusive: -47%"}, {"molecule": "CCc1cc[n+](-c2nc3ccccc3nc2[N-]S(=O)(=O)c2ccc(Br)s2)cc1", "activity change (PNC), negative = inhibition": "inconclusive: -77.9%"}, {"molecule": "O=C(NNS(=O)(=O)c1ccc2ccccc2c1)c1cccnc1", "activity change (PNC), negative = inhibition": "inconclusive: -39.9%"}, {"molecule": "COc1ccc(CCNC(=O)COC(=O)Cc2ccc(OC)cc2)cc1", "activity change (PNC), negative = inhibition": "inconclusive: -39.1%"}, {"molecule": "CCc1ccc(-c2nc(CN3CCC(C(=O)NCc4ccco4)CC3)c(C)o2)cc1", "activity change (PNC), negative = inhibition": "inconclusive: -55.3%"}, {"molecule": "CCOC(=O)Cc1nnc(Nc2ccc(C)cc2C)c2ccccc12", "activity change (PNC), negative = inhibition": "inactive: 11.9%"}, {"molecule": "O=C(NCCc1c[nH]c2ccccc12)C(=O)NCC(c1ccco1)N1CCN(c2ccccc2F)CC1", "note": "(centres undefined)", "activity change (PNC), negative = inhibition": "inconclusive: -32.6%"}, {"molecule": "CCC1C(=O)c2ccccc2N(C)C1=O", "note": "(centres undefined)", "activity change (PNC), negative = inhibition": "inconclusive: -72.8%"}, {"molecule": "C=CCc1cccc2ccc(=O)oc12", "activity change (PNC), negative = inhibition": "inconclusive: -59.1%"}, {"molecule": "CCN(CC)c1ccc(/C=N/NS(=O)(=O)c2ccc(C)c([N+](=O)[O-])c2)cc1", "activity change (PNC), negative = inhibition": "inconclusive: -31.6%"}, {"molecule": "CCN1CCN(c2nc(-c3cccnc3)nc3ccccc23)CC1", "activity change (PNC), negative = inhibition": "inconclusive: -51.9%"}, {"molecule": "COc1ccc(-c2nc3ccccc3c(=O)n2CCOc2cc(C)ccc2C)cc1", "activity change (PNC), negative = inhibition": "inconclusive: -30.3%"}, {"molecule": "O=C(O)CCC(=O)Nc1ccc(C(=O)N2CCCCC2)cc1", "activity change (PNC), negative = inhibition": "inactive: -24.2%"}, {"molecule": "Cc1ccc2cccc(S(=O)(=O)N3CCN(c4cccc(Cl)c4)CC3)c2n1", "activity change (PNC), negative = inhibition": "inconclusive: -72%"}, {"molecule": "CC(C)c1ccc(NC(=O)Nc2cc3sccc3n2C)cc1", "activity change (PNC), negative = inhibition": "inconclusive: -36.3%"}, {"molecule": "CC(C)(C)SCCNC(=O)c1cccc([N+](=O)[O-])c1", "activity change (PNC), negative = inhibition": "inconclusive: -68.4%"}]}]}
